Data as given in article doi:10.1101/2020.01.05.895219.
No constants are given. Whether binding was seen depends on the method and setting. Binding seen in cells or lysates may run through a third protein. Some binding calls cover weakened binding; strength is not graded here.

Protein sequences, listed by entry. Tags and fused reporters are not part of them.
UniProt P02929: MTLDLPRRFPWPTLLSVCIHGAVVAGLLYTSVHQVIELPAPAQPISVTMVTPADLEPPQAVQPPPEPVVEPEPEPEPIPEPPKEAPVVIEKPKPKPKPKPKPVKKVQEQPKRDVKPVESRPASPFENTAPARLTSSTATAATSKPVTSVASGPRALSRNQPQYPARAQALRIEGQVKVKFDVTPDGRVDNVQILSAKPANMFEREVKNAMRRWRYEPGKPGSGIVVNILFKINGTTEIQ

Legend:
[1] = target: T1, ExbB (E. coli (endogenous in W3110)) (UniProt P0ABU7); assay: cross-linking
T1 sequence: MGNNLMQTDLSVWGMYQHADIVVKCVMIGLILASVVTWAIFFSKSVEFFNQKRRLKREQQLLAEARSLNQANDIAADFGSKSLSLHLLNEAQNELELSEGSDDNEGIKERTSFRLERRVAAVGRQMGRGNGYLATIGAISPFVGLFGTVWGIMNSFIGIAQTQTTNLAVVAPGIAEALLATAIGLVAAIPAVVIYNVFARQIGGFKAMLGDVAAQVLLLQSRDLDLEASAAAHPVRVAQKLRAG

[2] = target: T2, LPP (Braun's lipoprotein) (E. coli (endogenous in W3110)) (UniProt P69776); assay: cross-linking
T2 sequence: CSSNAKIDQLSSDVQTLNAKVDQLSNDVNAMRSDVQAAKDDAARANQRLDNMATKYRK

With TonB (from UniProt P02929 1-239) the binding [1] was “binds” and the binding [2] was “binds”.
